In PubChem BioAssay AID602313 (National Center for Advancing Translational Sciences (NCATS), 2012):
Among all 390,000 compounds or so, about 760 (0.19%) were called active. Inconclusive results, whose numbers are uncertain, are shown with a selection of clear calls. Calls come from the whole dose curve; as a rule, active = well fitted inhibition curve with a large enough effect; inconclusive = small, poorly fitted or top-dose-only effect; inactive = flat fitted curve, though single readings scatter. Potencies beside an inconclusive call are fits to weak or partial responses and may not hold up.

Assay: qHTS for Inhibitors of Vif-A3F Interactions: qHTS; note: nearly all actives have a fitted effect of over 65% in size
Conditions: HeLa A3F-eYFP + Vif (tagged APOBEC3F with the HIV-1 protein that degrades it), YFP fluorescence increase; series mostly up to 46.1 µM
How it was run: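 Fluorescence increase (Ex 488/Em 500-530) after overnight compound treatment at 37 deg C flags inhibition of Vif-driven A3F-eYFP loss in stable HeLa A3F-eYFP/Vif cells seeded overnight beforehand.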
Potency is the fitted concentration of half-maximal effect.

Row | Structure (SMILES) | Potency
1 | CCOC(=O)c1ccc(N2C(=O)c3n[nH]c(C)c3C2c2ccc(C(C)(C)C)cc2)cc1 (stereo unspecified) | inconclusive: 22.4 µM [inhibitor, single point]
2 | N#CC(C#N)=C1C=CC=CN1/C(=C\c1ccco1)C(=O)c1ccccc1 | active: 20 µM
3 | Cc1ccccc1-n1c(/C=C/c2c(C)n(C)c3ccccc23)nc2ccccc2c1=O | inconclusive: 3.16 µM [inhibitor, full curve, poor fit]
4 | N#C/C(=C\c1ccccn1)c1nc2ccccc2s1 | inconclusive: 3.55 µM [inhibitor, partial curve, poor fit]
5 | Cc1cn2c(=O)c(C(=O)N3CCN(c4ccccc4F)CC3)cnc2s1 | inconclusive: 3.98 µM [inhibitor, single point]
6 | CCCC(C)NC(=O)CSc1nnc2ccccn12 (stereo unspecified) | inconclusive: 31.6 µM [inhibitor, single point]
7 | CCOC(=O)c1nc(C)sc1-c1ccnn1S(=O)(=O)c1cccc(Cl)c1 | inconclusive: 35.5 µM [inhibitor, single point]
8 | C/C(=N\Nc1cc(C)nc(-c2ccccc2O)n1)c1ccccc1 | inactive
9 | O=C(CCCCCNc1nc(=S)[nH]c2ccccc12)NCCC1=CCCCC1 | inconclusive: 35.5 µM [inhibitor, single point]
10 | O=C(Oc1ccccc1/C=C\C(=O)c1cc2ccccc2o1)c1cccc(F)c1 | inconclusive: 5.62 µM [inhibitor, single point]
11 | CCCN1C(=O)/C(=C/c2c(NCCCOC(C)C)nc3c(C)cccn3c2=O)SC1=S | inconclusive: 15.8 µM [inhibitor, partial curve, poor fit]
12 | C=CCNC(=S)N(C1CCCCC1)C1CCCCC1 | inconclusive: 22.4 µM [inhibitor, single point]
13 | COc1ccc(-n2c(=O)c3c4c(sc3n(Cc3cc(C)ccc3C)c2=O)CN(C(C)=O)CC4)c(OC)c1 | inactive
14 | CCn1ccnc1CN1CCCC(C(=O)c2ccc3c4c(cccc24)CC3)C1 (stereo unspecified) | inconclusive: 10 µM [inhibitor, partial curve, poor fit]
15 | CC(C)COC(=O)/C(C#N)=C/c1c[nH]c2ccccc12 | inconclusive: 35.5 µM [inhibitor, single point]
16 | COc1ccc(/C=N/NC(=O)c2cccnc2)cc1COc1ccc([N+](=O)[O-])c(C)c1 | inactive
17 | COCCCn1c(=S)[nH]c2sc3c(c2c1=O)CCCS3 | inactive
18 | O=C(NCCc1ccc(Cl)cc1)c1ccc(Cn2c(=O)c3cccn3c3cccnc32)cc1 | inconclusive: 35.5 µM [inhibitor, single point]
19 | COc1cccc(OC)c1NC(=O)C1CCCN1C(=O)Nc1ccccc1F (stereo unspecified) | inconclusive: 35.5 µM [inhibitor, single point]
20 | Oc1ccccc1NCC(O)Cn1ccc2ccccc21 (stereo unspecified) | inconclusive: 35.5 µM [inhibitor, single point]
21 | Cc1ccc(-c2cc(C(=O)Nc3c(C)n(C)n(-c4ccccc4)c3=O)[nH]n2)c(O)c1C | inconclusive: 22.4 µM [inhibitor, single point]
22 | COc1cccc(/C=C2/C(=O)NN(c3ccccc3)C2=O)c1 | inconclusive: 35.5 µM [inhibitor, single point]

Row | Structure (SMILES) | Potency
23 | NNc1nc2sc3c(c2c(=O)[nH]1)CCc1ccccc1-3 | inactive
24 | Cc1ccc2c(c1)C(=O)C(=O)N2Cc1ccc(Br)cc1 | inactive
25 | Cn1cccc1/C=C1\CC(C(C)(C)C)C/C(=C\c2cccn2C)C1=O (stereo unspecified) | inconclusive: 3.55 µM [inhibitor, full curve, poor fit]
26 | COc1ccc(NC(=O)Cn2c3ncccc3c(=O)n2-c2ccc(C)c(C)c2)c(OC)c1 | inactive
27 | COc1ccc(C)cc1NC(=O)Nc1ccc2c(c1)CCC2 | inactive
28 | COc1ccc2oc(C(=O)OC/C(O)=C(\C#N)c3nc4ccccc4[nH]3)c(C)c2c1 | inconclusive: 15.8 µM [inhibitor, partial curve, poor fit]
29 | Oc1ccc(/C=C/c2ccc3cccc(O)c3n2)cc1Br | inconclusive: 22.4 µM [inhibitor, single point]
30 | COc1cccc(Oc2cc(Cl)nc(N)n2)c1 | inconclusive: 0.631 µM [inhibitor, full curve, poor fit]
31 | N#CC(c1ccc(Cl)cc1)c1ncc(C(F)(F)F)cc1Cl (stereo unspecified) | inactive
32 | CC(=O)Nc1ccc2nc(NC(=O)COc3ccccc3Cl)sc2c1 | inconclusive: 17.8 µM [inhibitor, partial curve, poor fit]
33 | O=C(Nc1nc2ccccc2[nH]1)c1ccc(Cl)cc1 | inconclusive: 20 µM [inhibitor, partial curve, poor fit]
34 | O=C(CCNS(=O)(=O)c1cccc2nsnc12)NCc1ccco1 | inactive
35 | Cc1ccc(NC(=O)Cn2c(O)c(N=NC(=O)c3ccncc3)c3ccccc32)cc1 | active: 3.98 µM
36 | Cc1nnc(NC(=O)CSc2nc3c([nH]c4ccccc43)c(=O)n2-c2ccc(Cl)cc2)s1 | inconclusive: 35.5 µM [inhibitor, single point]
37 | COc1cc2c(cc1OC)C1=CC(=O)C(=O)N1C(C)(C)C2 | inconclusive: 3.16 µM [inhibitor, partial curve, poor fit]
38 | CSc1ccccc1NC(=O)c1cc(Cl)sc1Cl | inconclusive: 35.5 µM [inhibitor, single point]
39 | CCN(CC)CCCNC(=O)c1ccc2c(=O)n(Cc3ccc4c(c3)OCO4)c(=S)[nH]c2c1 | inconclusive: 12.6 µM [inhibitor, single point]
40 | Cc1cccc(NC(=S)NCCC(C)C)c1 | inconclusive: 25.1 µM [inhibitor, single point]
41 | CN1CCN(C(=S)NC(=O)c2ccc(Br)cc2)CC1 | inconclusive: 22.4 µM [inhibitor, partial curve, poor fit]
42 | CCCCCC(=O)NC(=S)Nc1ccc(N2CCOCC2)cc1 | inconclusive: 28.2 µM [inhibitor, partial curve, poor fit]
43 | O=C(CCS(=O)(=O)c1ccccc1)Nc1nc2c(s1)COc1ccccc1-2 | inconclusive: 3.16 µM [inhibitor, single point]
44 | COC(=O)[C@]1(C)CCC[C@@]2(C)C3CC[C@@]4(C)C[C@]3(CCC21)CC(=O)N4Cc1ccc(OC)cc1 (stereo partly specified) | inconclusive: 11.2 µM [inhibitor, partial curve, poor fit]

Row | Structure (SMILES) | Potency
45 | O=C1C=CC2(O[C@H](c3ccccc3)[C@@H](c3ccccc3)O2)[C@H](Sc2ccccc2O)C1 | inactive
46 | Cc1ccc2nc(/C(C#N)=C/c3ccc(O)c(O)c3)[nH]c2c1 | inconclusive: 20 µM [inhibitor, partial curve, poor fit]
47 | Cc1ccccc1-c1noc(-c2cc3ccccc3oc2=O)n1 | inconclusive: 28.2 µM [inhibitor, single point]
48 | O=C(CN1C(=O)CSCC1=O)Nc1ccc2c(c1)OCO2 | inconclusive: 3.55 µM [inhibitor, single point]
49 | CCOC(=O)c1ccc(NC(=O)Nc2ccc3c4c(cccc24)C(=O)N3CC)cc1 | inconclusive: 35.5 µM [inhibitor, single point]
50 | O=C1OCCC1Sc1nnc(-c2ccc(Cl)cc2Cl)o1 (stereo unspecified) | inconclusive: 6.31 µM [inhibitor, single point]
51 | CCOc1ccc2[nH]c3c(NCCN(CC)CC)ncnc3c2c1 | inconclusive: 0.562 µM [inhibitor, full curve, poor fit]
52 | CC(C)(C)c1ccc(NC(=O)CON=C(N)c2ccccc2)cc1 | inactive
53 | Cc1cccn2c(=O)c3cc(C(=O)NC4CCCCC4)c(=N)n(CCN4CCOCC4)c3nc12 | inactive
54 | O=C1C(Nc2ccccc2)=C2CCCC=C2N1c1ccccc1 | inconclusive: 25.1 µM [inhibitor, single point]
55 | CCOC(=O)c1c(NC(=O)Nc2ccc(C)cc2)sc2c1CCN(C)C2 | inconclusive: 35.5 µM [inhibitor, single point]
56 | O=C(CCC1CCCN(C(=O)c2cncs2)C1)NCc1ccc(F)c(F)c1 (stereo unspecified) | inactive
57 | COc1cc(/C=N/NC(=O)c2cncc(Br)c2)cc([N+](=O)[O-])c1O | inconclusive: 6.31 µM [inhibitor, single point]
58 | Cc1ccc(NC(=O)c2ccc(-c3nn(C)c(=O)c4ccccc34)cc2)cc1 | inconclusive: 15.8 µM [inhibitor, single point]
59 | COc1ccc(NC(=O)Cn2nnc3sc4c(c3c2=O)CCC(C)C4)c(OC)c1 (stereo unspecified) | inconclusive: 20 µM [inhibitor, single point]
60 | Cn1cccc1/C=N/N1CCN(Cc2cccc3ccccc23)CC1 | inactive
61 | Brc1ccccc1-c1cnco1 | inconclusive: 6.31 µM [inhibitor, single point]
62 | COc1ccc(N(S(=O)(=O)c2ccccc2)S(=O)(=O)c2ccccc2)c(N)c1 | inconclusive: 14.1 µM [inhibitor, single point]
63 | COc1cc(-c2noc(-c3ccc(NCc4ccccc4)c([N+](=O)[O-])c3)n2)cc(OC)c1OC | inconclusive: 5.01 µM [inhibitor, single point]
64 | Fc1ccc2nc(Nc3nc4c(F)cc(F)cc4s3)sc2c1 | inconclusive: 35.5 µM [inhibitor, single point]
65 | COc1ccccc1C(C)NC(=O)Cc1ccsc1 (stereo unspecified) | inconclusive: 3.16 µM [inhibitor, partial curve, poor fit]
66 | Cc1ccc(NC(=O)CCS(=O)(=O)c2ccccc2)cc1S(=O)(=O)N1CCCCCC1 | inconclusive: 3.16 µM [inhibitor, single point]

Another view of part of the listing above.
Cc1cn2c(=O)c(C(=O)N3CCN(c4ccccc4F)CC3)cnc2s1
  Potency: inconclusive: 3.98 µM [inhibitor, single point]
CCCC(C)NC(=O)CSc1nnc2ccccn12 (stereo unspecified)
  Potency: inconclusive: 31.6 µM [inhibitor, single point]
CCOC(=O)c1nc(C)sc1-c1ccnn1S(=O)(=O)c1cccc(Cl)c1
  Potency: inconclusive: 35.5 µM [inhibitor, single point]
C/C(=N\Nc1cc(C)nc(-c2ccccc2O)n1)c1ccccc1
  Potency: inactive
